PubChem BioAssay AID1224827 – NIAID – 2016
Here is a random part of about 3,800 reagents tested. Over the whole deposit, about 2,200 (57%) are marked active. 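Active means a strong reporter change in either direction; calls are per siRNA, not per gene; qiagen siRNAs gave weaker effects.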 A number with no mark means an inactive call. Not all columns of the deposit are shown.

Test: 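Confirm genes whose knock-down changes LPS-driven TNF promoter activity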 (follow-up of hits)
Cell system: RAW264.7 G9 mouse macrophage reporter clone
Knock-down reagent: single siRNA against mouse genes, 100 nM siRNA
Duration: siRNA for 2 days, then LPS about 16 h
Conditions: bacterial lipopolysaccharide (LPS), 10 ng/ml, cells fixed after overnight (about 16 h) stimulation
Read-out: 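Imaged nuclear TNF reporter intensity, background removed, scaled per plate and to non-targeting control wells, as z-scores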
Direction: TNF reporter z-score, mean: higher = stronger Tnf promoter reporter signal; gene median z, three same-vendor siRNAs: higher = stronger Tnf reporter signal for the gene
Rule for the call: 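An siRNA is called active when its mean z-score over replicates is at least +2 or at most -2; control wells get no call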

Gene	PubChem SID	TNF reporter z-score, mean	gene median z, three same-vendor siRNAs
Pepf (pepsinogen F)	SID315486171	10.4 (active)	-2.18
Pepf (pepsinogen F)	SID315486172	-2.71 (active)	-2.18
Pepf (pepsinogen F)	SID315486173	-3.55 (active)	-2.18
Pepf (pepsinogen F)	SID315486174	3.74 (active)	-2.81
Pepf (pepsinogen F)	SID315486175	-2.92 (active)	-2.81
Pepf (pepsinogen F)	SID315486176	-3.84 (active)	-2.81
Krt71 (keratin 71)	SID315485985	-4.95 (active)	-6.18
Krt71 (keratin 71)	SID315485986	-6.18 (active)	-6.18
Krt71 (keratin 71)	SID315485987	-7.23 (active)	-6.18
Krt71 (keratin 71)	SID315485988	0.801	-0.435
Krt71 (keratin 71)	SID315485989	0.0447	-0.435
Krt71 (keratin 71)	SID315485990	-2.2 (active)	-0.435
Adra1a (adrenergic receptor, alpha 1a)	SID315483678	5.5 (active)	-0.211
Adra1a (adrenergic receptor, alpha 1a)	SID315483679	-0.529	-0.211
Adra1a (adrenergic receptor, alpha 1a)	SID315483680	-1.52	-0.211
Adra1a (adrenergic receptor, alpha 1a)	SID315483681	-1.79	-2.27
Adra1a (adrenergic receptor, alpha 1a)	SID315483682	-2.46 (active)	-2.27
Adra1a (adrenergic receptor, alpha 1a)	SID315483683	-2.27 (active)	-2.27
Mobp (myelin-associated oligodendrocytic basic protein)	SID315484527	-1.32	-2.19
Mobp (myelin-associated oligodendrocytic basic protein)	SID315484528	-2.17 (active)	-2.19
Mobp (myelin-associated oligodendrocytic basic protein)	SID315484529	-4.41 (active)	-2.19
Chst8 (carbohydrate sulfotransferase 8)	SID315486576	-2.9 (active)	-3.9
Chst8 (carbohydrate sulfotransferase 8)	SID315486577	-3.9 (active)	-3.9
Chst8 (carbohydrate sulfotransferase 8)	SID315486578	-4.38 (active)	-3.9
Chst8 (carbohydrate sulfotransferase 8)	SID315486579	2.96 (active)	-1.22
Chst8 (carbohydrate sulfotransferase 8)	SID315486580	-1.22	-1.22
Chst8 (carbohydrate sulfotransferase 8)	SID315486581	-2.69 (active)	-1.22
Pwp2 (PWP2 periodic tryptophan protein homolog (yeast))	SID315487557	-3.76 (active)	-4
Pwp2 (PWP2 periodic tryptophan protein homolog (yeast))	SID315487558	-3.94 (active)	-4
Pwp2 (PWP2 periodic tryptophan protein homolog (yeast))	SID315487559	-5.38 (active)	-4
Pwp2 (PWP2 periodic tryptophan protein homolog (yeast))	SID315487560	-0.000165	-1.51
Pwp2 (PWP2 periodic tryptophan protein homolog (yeast))	SID315487561	0.0229	-1.51
Pwp2 (PWP2 periodic tryptophan protein homolog (yeast))	SID315487562	-2.81 (active)	-1.51
Aldh1a2 (aldehyde dehydrogenase family 1, subfamily A2)	SID315484767	-3.43 (active)	-3.77
Aldh1a2 (aldehyde dehydrogenase family 1, subfamily A2)	SID315484768	-3.64 (active)	-3.77
Aldh1a2 (aldehyde dehydrogenase family 1, subfamily A2)	SID315484769	-5.21 (active)	-3.77
Aldh1a2 (aldehyde dehydrogenase family 1, subfamily A2)	SID315484770	1.66	0.548
Aldh1a2 (aldehyde dehydrogenase family 1, subfamily A2)	SID315484771	1.6	0.548
Aldh1a2 (aldehyde dehydrogenase family 1, subfamily A2)	SID315484772	0.113	0.548
Ap1g2 (adaptor protein complex AP-1, gamma 2 subunit)	SID315483717	-4.81 (active)	-6.11
Ap1g2 (adaptor protein complex AP-1, gamma 2 subunit)	SID315483718	-6.24 (active)	-6.11
Ap1g2 (adaptor protein complex AP-1, gamma 2 subunit)	SID315483719	-6.49 (active)	-6.11
Ap1g2 (adaptor protein complex AP-1, gamma 2 subunit)	SID315483720	1.8	-0.91
Ap1g2 (adaptor protein complex AP-1, gamma 2 subunit)	SID315483721	-1.22	-0.91
Ap1g2 (adaptor protein complex AP-1, gamma 2 subunit)	SID315483722	-1.89	-0.91
Tmem171 (transmembrane protein 171)	SID315489111	-5 (active)	-5.26
Tmem171 (transmembrane protein 171)	SID315489112	-5.35 (active)	-5.26
Tmem171 (transmembrane protein 171)	SID315489113	-5.83 (active)	-5.26
Tmem171 (transmembrane protein 171)	SID315489114	1.79	-1.69
Tmem171 (transmembrane protein 171)	SID315489115	-2.36 (active)	-1.69
Tmem171 (transmembrane protein 171)	SID315489116	-2.13 (active)	-1.69
Egfl7 (EGF-like domain 7)	SID315489081	4.84 (active)	1.7
Egfl7 (EGF-like domain 7)	SID315489082	1.7	1.7
Egfl7 (EGF-like domain 7)	SID315489083	-3.15 (active)	1.7
Egfl7 (EGF-like domain 7)	SID315489084	3.99 (active)	-0.279
Egfl7 (EGF-like domain 7)	SID315489085	-1.59	-0.279
Egfl7 (EGF-like domain 7)	SID315489086	-1.07	-0.279
Folr1 (folate receptor alpha)	SID315484158	2.1 (active)	0.619
Folr1 (folate receptor alpha)	SID315484159	0.44	0.619
Folr1 (folate receptor alpha)	SID315484160	-0.316	0.619
Folr1 (folate receptor alpha)	SID315484161	-0.016	-1.23
Folr1 (folate receptor alpha)	SID315484162	-0.585	-1.23
Folr1 (folate receptor alpha)	SID315484163	-3.25 (active)	-1.23
Qser1 (glutamine and serine rich 1)	SID315487395	2.38 (active)	0.505
Qser1 (glutamine and serine rich 1)	SID315487396	0.1	0.505
Qser1 (glutamine and serine rich 1)	SID315487397	-0.18	0.505
Polr1a (polymerase (RNA) I polypeptide A)	SID315484824	-2.59 (active)	-3.26
Polr1a (polymerase (RNA) I polypeptide A)	SID315484825	-2.94 (active)	-3.26
Polr1a (polymerase (RNA) I polypeptide A)	SID315484826	-4.64 (active)	-3.26
Polr1a (polymerase (RNA) I polypeptide A)	SID315484827	1.23	-0.618
Polr1a (polymerase (RNA) I polypeptide A)	SID315484828	-0.356	-0.618
Polr1a (polymerase (RNA) I polypeptide A)	SID315484829	-1.83	-0.618
Ido1 (indoleamine 2,3-dioxygenase 1)	SID315484377	-3 (active)	-4.49
Ido1 (indoleamine 2,3-dioxygenase 1)	SID315484378	-3.48 (active)	-4.49
Ido1 (indoleamine 2,3-dioxygenase 1)	SID315484379	-6.27 (active)	-4.49
Ido1 (indoleamine 2,3-dioxygenase 1)	SID315484380	2.86 (active)	0.332
Ido1 (indoleamine 2,3-dioxygenase 1)	SID315484381	1.02	0.332
Ido1 (indoleamine 2,3-dioxygenase 1)	SID315484382	-1.1	0.332

Not a retest: an excerpt of the list.
Gene	PubChem SID	TNF reporter z-score, mean	gene median z, three same-vendor siRNAs
Aldh1a2 (aldehyde dehydrogenase family 1, subfamily A2)	SID315484772	0.113	0.548
Ap1g2 (adaptor protein complex AP-1, gamma 2 subunit)	SID315483717	-4.81 (active)	-6.11
Ap1g2 (adaptor protein complex AP-1, gamma 2 subunit)	SID315483718	-6.24 (active)	-6.11
Ap1g2 (adaptor protein complex AP-1, gamma 2 subunit)	SID315483719	-6.49 (active)	-6.11
Ap1g2 (adaptor protein complex AP-1, gamma 2 subunit)	SID315483720	1.8	-0.91
Ap1g2 (adaptor protein complex AP-1, gamma 2 subunit)	SID315483721	-1.22	-0.91
Ap1g2 (adaptor protein complex AP-1, gamma 2 subunit)	SID315483722	-1.89	-0.91
Tmem171 (transmembrane protein 171)	SID315489111	-5 (active)	-5.26
Tmem171 (transmembrane protein 171)	SID315489112	-5.35 (active)	-5.26
Tmem171 (transmembrane protein 171)	SID315489113	-5.83 (active)	-5.26
Tmem171 (transmembrane protein 171)	SID315489114	1.79	-1.69
